# In the supplement of paper PMC11732987, “Enantioselective OTUD7B fragment discovery through chemoproteomics screening and high-throughput optimisation” (Communications Chemistry, 2025):
# Sequences of proteins named here, by UniProt entry; tags and fusion partners are left off. A change or cut given only in a name is not applied to a line headed by its entry. Residues count along the entry.
# UniProt Q53H12: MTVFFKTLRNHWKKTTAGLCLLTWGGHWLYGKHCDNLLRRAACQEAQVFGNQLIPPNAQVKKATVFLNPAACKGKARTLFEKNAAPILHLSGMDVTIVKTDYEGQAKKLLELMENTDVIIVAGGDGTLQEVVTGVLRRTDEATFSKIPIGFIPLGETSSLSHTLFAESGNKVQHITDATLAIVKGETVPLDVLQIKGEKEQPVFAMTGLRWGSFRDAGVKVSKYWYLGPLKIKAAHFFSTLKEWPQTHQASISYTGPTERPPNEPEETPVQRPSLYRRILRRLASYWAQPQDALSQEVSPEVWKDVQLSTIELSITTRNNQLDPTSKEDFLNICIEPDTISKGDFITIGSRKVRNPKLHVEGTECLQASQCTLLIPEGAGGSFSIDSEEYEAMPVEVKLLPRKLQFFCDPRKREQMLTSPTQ
# UniProt Q4G176: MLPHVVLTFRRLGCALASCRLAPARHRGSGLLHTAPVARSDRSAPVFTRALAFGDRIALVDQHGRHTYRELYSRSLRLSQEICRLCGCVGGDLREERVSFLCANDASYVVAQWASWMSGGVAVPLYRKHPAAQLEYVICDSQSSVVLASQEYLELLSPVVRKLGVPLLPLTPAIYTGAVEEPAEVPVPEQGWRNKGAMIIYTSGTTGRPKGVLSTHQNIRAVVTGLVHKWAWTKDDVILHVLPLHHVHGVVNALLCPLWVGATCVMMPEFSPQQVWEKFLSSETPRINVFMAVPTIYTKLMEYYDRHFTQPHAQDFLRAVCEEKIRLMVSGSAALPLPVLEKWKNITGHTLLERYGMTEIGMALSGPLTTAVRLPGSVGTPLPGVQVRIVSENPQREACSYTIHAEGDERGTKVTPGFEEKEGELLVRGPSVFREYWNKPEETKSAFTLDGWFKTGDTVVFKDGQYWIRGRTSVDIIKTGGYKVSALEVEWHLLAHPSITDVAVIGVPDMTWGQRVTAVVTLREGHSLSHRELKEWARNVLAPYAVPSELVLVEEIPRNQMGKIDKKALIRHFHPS
# UniProt Q4VCS5: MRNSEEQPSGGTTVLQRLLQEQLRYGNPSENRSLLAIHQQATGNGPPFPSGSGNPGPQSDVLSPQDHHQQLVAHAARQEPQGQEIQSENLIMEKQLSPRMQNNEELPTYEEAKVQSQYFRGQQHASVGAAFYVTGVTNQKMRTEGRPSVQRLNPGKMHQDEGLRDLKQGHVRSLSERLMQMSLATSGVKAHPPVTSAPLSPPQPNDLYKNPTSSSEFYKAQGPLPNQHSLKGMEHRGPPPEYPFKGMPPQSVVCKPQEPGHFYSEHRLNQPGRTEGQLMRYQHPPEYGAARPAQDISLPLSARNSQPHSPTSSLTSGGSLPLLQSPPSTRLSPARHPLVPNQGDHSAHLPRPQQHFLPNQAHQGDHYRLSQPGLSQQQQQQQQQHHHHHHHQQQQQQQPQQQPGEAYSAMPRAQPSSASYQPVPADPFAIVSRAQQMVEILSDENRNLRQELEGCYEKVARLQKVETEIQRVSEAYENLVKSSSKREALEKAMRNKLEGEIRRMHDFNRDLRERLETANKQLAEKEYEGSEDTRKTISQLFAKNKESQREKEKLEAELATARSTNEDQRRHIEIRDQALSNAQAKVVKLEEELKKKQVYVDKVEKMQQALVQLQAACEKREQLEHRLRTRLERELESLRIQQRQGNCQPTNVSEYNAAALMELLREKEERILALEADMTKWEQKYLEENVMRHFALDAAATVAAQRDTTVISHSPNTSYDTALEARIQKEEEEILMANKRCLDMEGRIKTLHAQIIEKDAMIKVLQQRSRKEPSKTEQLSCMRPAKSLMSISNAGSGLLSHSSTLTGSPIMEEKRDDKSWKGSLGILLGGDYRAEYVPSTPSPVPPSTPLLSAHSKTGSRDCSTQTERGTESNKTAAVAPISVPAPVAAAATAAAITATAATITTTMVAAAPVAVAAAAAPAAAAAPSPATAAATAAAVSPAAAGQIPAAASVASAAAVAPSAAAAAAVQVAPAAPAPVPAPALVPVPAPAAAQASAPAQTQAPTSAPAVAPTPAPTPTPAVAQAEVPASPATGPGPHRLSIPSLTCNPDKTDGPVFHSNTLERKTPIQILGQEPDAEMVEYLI
# UniProt Q6NS38: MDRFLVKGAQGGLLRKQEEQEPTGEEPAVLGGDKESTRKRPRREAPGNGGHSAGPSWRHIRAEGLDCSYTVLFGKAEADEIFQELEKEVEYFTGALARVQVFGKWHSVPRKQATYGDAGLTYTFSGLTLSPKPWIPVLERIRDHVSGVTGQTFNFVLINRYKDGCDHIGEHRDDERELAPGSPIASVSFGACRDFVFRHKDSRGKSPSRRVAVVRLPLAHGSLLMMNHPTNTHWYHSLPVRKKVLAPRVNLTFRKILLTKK
# UniProt Q02040, 136-157: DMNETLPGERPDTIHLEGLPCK
# UniProt Q8TCU4: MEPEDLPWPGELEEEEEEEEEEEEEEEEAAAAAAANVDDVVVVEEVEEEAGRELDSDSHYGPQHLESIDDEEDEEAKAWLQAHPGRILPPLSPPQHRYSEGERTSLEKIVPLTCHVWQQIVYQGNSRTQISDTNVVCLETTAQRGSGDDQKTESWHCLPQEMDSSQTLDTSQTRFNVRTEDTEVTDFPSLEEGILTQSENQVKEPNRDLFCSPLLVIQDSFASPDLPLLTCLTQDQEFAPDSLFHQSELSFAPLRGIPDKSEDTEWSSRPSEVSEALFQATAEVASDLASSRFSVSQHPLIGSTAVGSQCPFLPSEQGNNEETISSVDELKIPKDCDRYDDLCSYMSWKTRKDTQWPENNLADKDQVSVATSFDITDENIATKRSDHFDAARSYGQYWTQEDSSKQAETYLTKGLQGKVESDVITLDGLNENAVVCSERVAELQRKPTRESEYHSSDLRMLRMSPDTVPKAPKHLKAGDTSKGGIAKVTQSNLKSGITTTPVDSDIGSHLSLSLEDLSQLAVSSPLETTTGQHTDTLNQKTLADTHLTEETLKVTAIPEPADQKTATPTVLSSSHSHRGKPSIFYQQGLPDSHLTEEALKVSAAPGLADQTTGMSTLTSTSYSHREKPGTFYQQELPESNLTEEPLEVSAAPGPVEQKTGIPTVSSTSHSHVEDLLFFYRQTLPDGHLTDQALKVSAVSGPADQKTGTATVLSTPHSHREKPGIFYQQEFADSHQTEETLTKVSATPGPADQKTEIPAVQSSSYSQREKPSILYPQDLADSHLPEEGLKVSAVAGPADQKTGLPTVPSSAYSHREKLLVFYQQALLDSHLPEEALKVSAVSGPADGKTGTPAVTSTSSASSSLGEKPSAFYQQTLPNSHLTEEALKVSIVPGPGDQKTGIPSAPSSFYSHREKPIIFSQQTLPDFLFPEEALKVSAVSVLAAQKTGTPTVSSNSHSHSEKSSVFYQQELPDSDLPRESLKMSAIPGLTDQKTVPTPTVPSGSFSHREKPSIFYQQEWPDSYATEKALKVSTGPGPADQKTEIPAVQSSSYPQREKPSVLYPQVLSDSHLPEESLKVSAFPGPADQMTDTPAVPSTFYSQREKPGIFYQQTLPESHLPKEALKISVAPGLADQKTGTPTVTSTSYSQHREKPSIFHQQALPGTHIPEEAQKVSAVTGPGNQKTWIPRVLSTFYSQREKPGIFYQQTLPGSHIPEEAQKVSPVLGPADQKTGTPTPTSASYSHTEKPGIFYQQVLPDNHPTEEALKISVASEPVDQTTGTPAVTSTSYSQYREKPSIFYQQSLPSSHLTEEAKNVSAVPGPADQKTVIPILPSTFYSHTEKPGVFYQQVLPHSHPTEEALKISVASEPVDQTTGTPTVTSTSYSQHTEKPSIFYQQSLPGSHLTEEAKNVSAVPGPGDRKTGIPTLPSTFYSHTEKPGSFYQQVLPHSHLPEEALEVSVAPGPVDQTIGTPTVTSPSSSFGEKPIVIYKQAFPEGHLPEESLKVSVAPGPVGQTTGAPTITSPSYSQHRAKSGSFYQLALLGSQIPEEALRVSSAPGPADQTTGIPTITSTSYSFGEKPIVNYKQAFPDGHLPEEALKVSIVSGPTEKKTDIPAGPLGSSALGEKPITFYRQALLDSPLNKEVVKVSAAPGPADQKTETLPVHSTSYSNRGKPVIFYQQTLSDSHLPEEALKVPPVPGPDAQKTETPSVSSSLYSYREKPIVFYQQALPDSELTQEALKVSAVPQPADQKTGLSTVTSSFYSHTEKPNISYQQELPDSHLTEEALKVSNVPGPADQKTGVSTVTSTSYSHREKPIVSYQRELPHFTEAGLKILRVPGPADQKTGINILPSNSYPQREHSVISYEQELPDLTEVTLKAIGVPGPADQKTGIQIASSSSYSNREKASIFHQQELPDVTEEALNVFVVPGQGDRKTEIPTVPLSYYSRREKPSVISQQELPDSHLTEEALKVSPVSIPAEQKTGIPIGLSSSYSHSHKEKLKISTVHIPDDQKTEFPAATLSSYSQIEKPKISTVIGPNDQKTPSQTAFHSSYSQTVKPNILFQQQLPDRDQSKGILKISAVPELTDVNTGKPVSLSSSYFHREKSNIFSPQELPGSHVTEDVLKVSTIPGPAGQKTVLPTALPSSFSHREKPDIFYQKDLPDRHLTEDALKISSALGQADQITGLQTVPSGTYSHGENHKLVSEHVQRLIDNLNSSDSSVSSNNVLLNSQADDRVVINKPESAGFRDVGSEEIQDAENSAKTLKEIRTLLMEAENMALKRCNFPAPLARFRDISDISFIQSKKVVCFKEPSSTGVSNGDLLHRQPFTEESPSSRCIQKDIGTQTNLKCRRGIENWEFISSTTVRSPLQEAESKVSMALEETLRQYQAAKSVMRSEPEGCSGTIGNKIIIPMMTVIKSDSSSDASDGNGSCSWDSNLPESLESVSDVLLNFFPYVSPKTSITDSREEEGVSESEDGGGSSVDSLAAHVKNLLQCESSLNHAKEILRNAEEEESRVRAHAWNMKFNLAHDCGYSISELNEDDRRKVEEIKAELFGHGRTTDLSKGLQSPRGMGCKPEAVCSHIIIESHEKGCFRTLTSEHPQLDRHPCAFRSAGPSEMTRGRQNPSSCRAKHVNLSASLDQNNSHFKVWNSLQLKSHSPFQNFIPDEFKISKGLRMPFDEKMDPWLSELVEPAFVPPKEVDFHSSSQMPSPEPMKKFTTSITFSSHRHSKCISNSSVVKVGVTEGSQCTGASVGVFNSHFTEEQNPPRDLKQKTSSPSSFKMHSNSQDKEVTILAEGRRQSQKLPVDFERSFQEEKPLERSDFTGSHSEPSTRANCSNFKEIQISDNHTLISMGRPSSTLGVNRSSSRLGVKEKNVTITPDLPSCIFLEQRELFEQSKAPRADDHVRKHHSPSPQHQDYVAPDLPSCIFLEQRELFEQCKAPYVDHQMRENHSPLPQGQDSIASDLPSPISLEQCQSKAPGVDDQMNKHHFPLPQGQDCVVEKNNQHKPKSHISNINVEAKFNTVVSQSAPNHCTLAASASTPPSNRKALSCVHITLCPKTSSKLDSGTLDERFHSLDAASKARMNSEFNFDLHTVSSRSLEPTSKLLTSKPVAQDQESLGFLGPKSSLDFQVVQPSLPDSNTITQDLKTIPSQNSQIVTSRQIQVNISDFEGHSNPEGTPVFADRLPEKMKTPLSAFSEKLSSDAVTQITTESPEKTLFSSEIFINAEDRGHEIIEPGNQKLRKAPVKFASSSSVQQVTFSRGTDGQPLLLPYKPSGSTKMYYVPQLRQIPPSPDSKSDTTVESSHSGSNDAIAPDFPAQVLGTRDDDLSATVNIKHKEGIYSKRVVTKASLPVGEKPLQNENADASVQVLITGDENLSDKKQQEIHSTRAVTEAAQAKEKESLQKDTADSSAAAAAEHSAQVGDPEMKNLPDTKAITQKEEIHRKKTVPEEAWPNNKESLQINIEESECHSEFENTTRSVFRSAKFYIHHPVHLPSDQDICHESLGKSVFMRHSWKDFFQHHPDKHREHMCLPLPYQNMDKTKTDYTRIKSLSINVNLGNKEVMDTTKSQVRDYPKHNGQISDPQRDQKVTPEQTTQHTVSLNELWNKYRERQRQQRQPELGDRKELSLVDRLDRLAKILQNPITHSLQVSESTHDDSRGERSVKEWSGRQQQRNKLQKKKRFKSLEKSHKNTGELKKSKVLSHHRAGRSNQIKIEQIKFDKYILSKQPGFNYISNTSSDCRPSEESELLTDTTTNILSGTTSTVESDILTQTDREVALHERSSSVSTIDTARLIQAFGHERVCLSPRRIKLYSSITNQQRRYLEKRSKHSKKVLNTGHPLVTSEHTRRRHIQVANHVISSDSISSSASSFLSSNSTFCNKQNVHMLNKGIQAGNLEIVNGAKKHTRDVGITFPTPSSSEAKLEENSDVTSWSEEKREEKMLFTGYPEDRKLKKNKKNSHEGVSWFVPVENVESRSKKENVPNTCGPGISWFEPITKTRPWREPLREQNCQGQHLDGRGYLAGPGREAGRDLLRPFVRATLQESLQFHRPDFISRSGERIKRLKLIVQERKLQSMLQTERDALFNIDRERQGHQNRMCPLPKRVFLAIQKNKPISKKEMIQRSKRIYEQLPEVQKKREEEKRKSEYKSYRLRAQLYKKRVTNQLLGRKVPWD
# The list shows a part of the results. The data scatter; read single values as rough.
# Compound: ClCC(=O)N[C@H]1CCCc2ccccc12
# Experiment: log2 mean competition ratio of IA-DTB cysteine labelling (DMSO/compound) (log2 ratio); higher = stronger cysteine engagement by compound
# Details: 50 µM; treatment time: 4 h; cell line lysate: HEK293T
# Experimental: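 IA-DTB competitive cysteine chemoproteomics in HEK293T RIPA lysate. Lysates were treated with compound 29 or 30 at 50 or 200 µM for 4 h, then IA-DTB (500 µM, 1 h), trypsin-digested, NeutrAvidin-enriched and analysed by diaPASEF. Competition ratio = intensity DMSO / intensity compound (n=4 treated, n=64 DMSO); binding: mean log2 CR ≥ 1 and p ≤ 0.05 plus QC filters. Target is the cysteine site.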
row,Target,log2 mean competition ratio
1,AFG3L2 C626 (UniProt Q9Y4W6),0.0421
2,AIMP2 C143 (UniProt Q13155),0.451
3,AGK C408 (UniProt Q53H12),-0.239
4,ACSF3 C83 (UniProt Q4G176),-0.0158
5,AGGF1 C307 (UniProt Q8N302),-0.53
6,AMOT C862 (UniProt Q4VCS5),-0.0402
7,AKAP13 C732 (UniProt Q12802),-0.0644
8,ALKBH2 C67 (UniProt Q6NS38),-0.355
9,ANAPC5 C86 (UniProt Q9UJX4),-0.107
10,AFF3 C403,-0.0703
11,ADH5 C282 (UniProt P11766),-0.232
12,ACTR10 C183 (UniProt Q9NZ32),-0.0119
13,AJUBA C338 (UniProt Q96IF1),-0.0669
14,AKAP17A C156 (UniProt Q02040),-0.295
15,ALMS1 C2395 (UniProt Q8TCU4),0.00795
16,ADAMTS1 C892,0.0953
17,ALDH9A1 C96 (UniProt P49189),-0.754
18,AKAP10 C110 (UniProt O43572),-0.4
19,ALMS1 C2993 (UniProt Q8TCU4),-0.151
20,ACOT8 C302 (UniProt O14734),-0.15

# Same assay, conditions: 200 µM; treatment time: 4 h; cell line lysate: HEK293T
row,Target,log2 mean competition ratio
1,AFG3L2 C626 (UniProt Q9Y4W6),-0.116
2,AIMP2 C143 (UniProt Q13155),-0.441
3,AGK C408 (UniProt Q53H12),-0.0144
4,ACSF3 C83 (UniProt Q4G176),0.178
5,AGGF1 C307 (UniProt Q8N302),0.00976
6,AMOT C862 (UniProt Q4VCS5),0.242
7,AKAP13 C732 (UniProt Q12802),0.178
8,ALKBH2 C67 (UniProt Q6NS38),-0.296
9,ANAPC5 C86 (UniProt Q9UJX4),0.126
10,AFF3 C403,0.000115
11,ADH5 C282 (UniProt P11766),-0.423
12,ACTR10 C183 (UniProt Q9NZ32),0.361
13,AJUBA C338 (UniProt Q96IF1),0.251
14,AKAP17A C156 (UniProt Q02040),0.208
15,ALMS1 C2395 (UniProt Q8TCU4),-0.0891
16,ADAMTS1 C892,0.249
17,ALDH9A1 C96 (UniProt P49189),-0.72
18,AKAP10 C110 (UniProt O43572),0.0697
19,ALMS1 C2993 (UniProt Q8TCU4),0.0367
20,ACOT8 C302 (UniProt O14734),-0.111
